Test results published in the supplement of paper PMC9135407.
Several values for one entry are separate records, joined by “and”; a condition that tells them apart may be missing. Equal values may be shown once. Where a name gives a salt, the structure may show the parent alone. ± gives the standard deviation of the averaged measurements. The list shows a part of the results. Part of the spread comes from offsets between plates or batches.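 Assay uses culture-activated primary human stellate myofibroblasts; lipid droplet recovery indicates inactivation. Measured: proportion of Hoechst-counted cells over a plate-specific Bodipy cutoff, duplicate wells, DMSO and nortriptyline as per-plate negative and positive controls. A hit scores, control-normalized, above the plate's top-tenth-percentile nortriptyline wells or ranks among its three best wells. Final well concentrations not reported.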

System: primary human hepatic stellate cells (donor 1)
Assay: percent Bodipy-positive cells; higher = more lipid droplet accumulation
Conditions: 48 h
Experimental: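 Primary lipid accumulation screen in primary human hepatic stellate cell myofibroblasts (donor 1, passage 8) in 384-well plates. 100 nL of library compound was pin-transferred into 30 µL medium in duplicate, and cells were treated for 48 h. The 'Scaled' score combines distance from plate baseline, toxicity and reproducibility penalties, and is normalised to nortriptyline (positive) and DMSO (negative) controls on each plate. A hit is defined as scaled >0.85 or among the top 3 wells per plate.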

[1] = library stock concentration: 10 mM
[2] = library stock concentration: 1 mM
[3] = library stock concentration: 3.33 mM
[4] = library stock concentration: 80 uM
[5] = library stock concentration: 400 uM
[6] = library stock concentration: 2 mM

## Cn1cnc2c1c(=O)[nH]c(=O)n2C [Theobromine]
  percent Bodipy-positive cells: 9.59 ± 0.54%
[1]
  percent Bodipy-positive cells: 12.6% and 24%

## CCCCC[C@H](O)/C=C/[C@H]1[C@H](O)CC(=O)[C@@H]1CC(=O)CCCCC(=O)O [6-keto Prostaglandin E1]
[2]
  percent Bodipy-positive cells: 9.84 ± 3.3%

## CC1=NN(c2ccccc2)C(=O)C1 [Edaravone]
[3]
  percent Bodipy-positive cells: 25 ± 20%
[1]
  percent Bodipy-positive cells: 19.7 ± 1.1%

## CC1=NN(c2ccccc2)C(=O)C1
[1]
  percent Bodipy-positive cells: 7.43 ± 2.9%

## CCN(CC)CCNC(=O)c1cc(Cl)c(N)cc1OC [Metoclopramide HCl]
Library stock concentration: 6.7 mM
  percent Bodipy-positive cells: 8.64 ± 3%

## CCN(CC)CCNC(=O)c1cc(Cl)c(N)cc1OC [Metoclopramide hydrochloride]
Library stock concentration: 5.9 mM
  percent Bodipy-positive cells: 3.1 ± 1.2%

## CCN(CC)CCNC(=O)c1cc(Cl)c(N)cc1OC [MetoclopraMide HCl]
[3]
  percent Bodipy-positive cells: 17.3 ± 0.46%
[1]
  percent Bodipy-positive cells: 21.9 ± 7.7%

## CCN(CC)CCNC(=O)c1cc(Cl)c(N)cc1OC [Metoclopramide monohydrochloride]
  percent Bodipy-positive cells: 28.5 ± 1.2%

## NCCCNCCCCNCCCN [Spermine tetrahydrochloride]
[1]
  percent Bodipy-positive cells: 12.7 ± 3.9%

## CC(C)(CO)C(O)C(=O)NCCCO (stereo not drawn) [Panthenol]
Library stock concentration: 9.7 mM
  percent Bodipy-positive cells: 11.4 ± 4%

## CC(C)(CO)C(O)C(=O)NCCCO (stereo not drawn) [Panthenol (D)]
  percent Bodipy-positive cells: 26.4 ± 4%

## CN(C)C/C=C(/c1ccc(Br)cc1)c1cccnc1 [Zimelidine dihydrochloride monohydrate]
  percent Bodipy-positive cells: 62.8 ± 8.8%

## CN(C)C/C=C(/c1ccc(Br)cc1)c1cccnc1 [Zimelidine dihydrochloride]
Library stock concentration: 5.1 mM
  percent Bodipy-positive cells: 45.5 ± 6.7%
[1]
  percent Bodipy-positive cells: 52.4 ± 7.7%

## CCOc1ccc2ccccc2c1C(=O)N[C@@H]1C(=O)N2[C@@H]1SC(C)(C)[C@@H]2C(=O)O [Nafcillin sodium]
[1]
  percent Bodipy-positive cells: 9.08 ± 0.96%

## CCOc1ccc2ccccc2c1C(=O)N[C@@H]1C(=O)N2[C@@H]1SC(C)(C)[C@@H]2C(=O)O [Nafcillin sodium salt monohydrate]
  percent Bodipy-positive cells: 10.2 ± 1.2%

## CCOc1ccc2ccccc2c1C(=O)N[C@@H]1C(=O)N2[C@@H]1SC(C)(C)[C@@H]2C(=O)O [Nafcillin Sodium]
[3]
  percent Bodipy-positive cells: 7.91 ± 3.7%
[1]
  percent Bodipy-positive cells: 28.1 ± 25%

## CCOc1ccc2ccccc2c1C(=O)N[C@@H]1C(=O)N2[C@@H]1SC(C)(C)[C@@H]2C(=O)O
[1]
  percent Bodipy-positive cells: 30.4 ± 0.61%

## C[S+]([O-])c1ccc(-c2nc(-c3ccc(F)cc3)c(-c3ccncc3)[nH]2)cc1 (stereo not drawn)
[4]
  percent Bodipy-positive cells: 15.4 ± 0.57%
[5]
  percent Bodipy-positive cells: 19.2% and 32.2%
[2]
  percent Bodipy-positive cells: 15 ± 0.4%
[6]
  percent Bodipy-positive cells: 16% and 26.3%
[3]
  percent Bodipy-positive cells: 11.1% and 12.5%
Library stock concentration: 13.2 mM
  percent Bodipy-positive cells: 20.4 ± 7.4%

## Cc1ccc(NC2=CC(=O)c3sc(C)nc3C2=O)cc1 [Cdk4 Inhibitor III]
[3]
  percent Bodipy-positive cells: 94.8 ± 1.2%

## CS(=O)(=O)c1ccc(-c2cnc(N)c(C(=O)Nc3ccccc3)n2)cc1
[1]
  percent Bodipy-positive cells: 91.7 ± 3.8%

## COc1cc2c(Oc3ccc(NC(=O)C4(C(=O)Nc5ccc(F)cc5)CC4)cc3F)ccnc2cc1OCCCN1CCOCC1
[4]
  percent Bodipy-positive cells: 59.2 ± 5.8%
[5]
  percent Bodipy-positive cells: 59 ± 6.7%
[6]
  percent Bodipy-positive cells: 75.9 ± 0.23%
[1]
  percent Bodipy-positive cells: 99.3% and 99.5%

## COc1cc(N2CCC(N(C)C)CC2)ccc1Nc1ncc(Cl)c(Nc2ccccc2P(C)(C)=O)n1
[4]
  percent Bodipy-positive cells: 7.34 ± 0.87%
[5]
  percent Bodipy-positive cells: 15.4 ± 3%
[6]
  percent Bodipy-positive cells: 31.4 ± 11%
[3]
  percent Bodipy-positive cells: 74.8 ± 14%

## OCc1cccnc1 [Nicotinyl alcohol tartrate]
Library stock concentration: 7.7 mM
  percent Bodipy-positive cells: 18 ± 1%
[1]
  percent Bodipy-positive cells: 29.2 ± 2.2%

## OCc1cccnc1
[1]
  percent Bodipy-positive cells: 10.1 ± 3.5%

## Nc1ccccc1S(N)(=O)=O [2-Aminobenzenesulfonamide]
  percent Bodipy-positive cells: 7.97 ± 1.3%

## COc1ccccc1Oc1c(NS(=O)(=O)c2ccc(C(C)(C)C)cc2)nc(-c2ncccn2)nc1OCCO [Bosentan Hydrate]
[3]
  percent Bodipy-positive cells: 6.66 ± 0.65%
[1]
  percent Bodipy-positive cells: 13.9 ± 8.6%

## COc1ccccc1Oc1c(NS(=O)(=O)c2ccc(C(C)(C)C)cc2)nc(-c2ncccn2)nc1OCCO [Bosentan]
[3]
  percent Bodipy-positive cells: 10.2 ± 0.73%
Library stock concentration: 3.6 mM
  percent Bodipy-positive cells: 6.91 ± 2.4%
[1]
  percent Bodipy-positive cells: 31.7 ± 11%

## CCCCCCCCCCCCCCC(=O)N[C@H]1CCOC1=O [N-pentadecanoyl-L-Homoserine lactone]
[2]
  percent Bodipy-positive cells: 14.1 ± 3.9%

## CC1=C(/C=C/C(C)=C/C=C/C(C)=C/C=C/C=C(C)/C=C/C=C(C)/C=C/C2=C(C)C(=O)CCC2(C)C)C(C)(C)CCC1=O [Canthaxanthin]
Library stock concentration: 3.5 mM
  percent Bodipy-positive cells: 82.5 ± 7%

## CN(C)CCC=C1c2ccccc2COc2ccccc21 [Doxepin]
[1]
  percent Bodipy-positive cells: 65.9 ± 5.6%

## CN(C)CCC=C1c2ccccc2COc2ccccc21 [Doxepin hydrochloride]
  percent Bodipy-positive cells: 61.2 ± 3.1%

## CC(C)[N+](C)(CCOC(=O)C1c2ccccc2Oc2ccccc21)C(C)C [Pro-Banthine]
[1]
  percent Bodipy-positive cells: 38 ± 1.1%

## CC(C)[N+](C)(CCOC(=O)C1c2ccccc2Oc2ccccc21)C(C)C [Propantheline bromide]
  percent Bodipy-positive cells: 12.5 ± 1.6%
Library stock concentration: 4.5 mM
  percent Bodipy-positive cells: 12.65 ± 0.12%
[1]
  percent Bodipy-positive cells: 14.3% and 20.6%

## CN1CCC[C@@H]1Cc1c[nH]c2ccc(CCS(=O)(=O)c3ccccc3)cc12 [Eletriptan HBr]
[3]
  percent Bodipy-positive cells: 45.9 ± 3.2%
[1]
  percent Bodipy-positive cells: 44.7 ± 11%

## CN1CCC[C@@H]1Cc1c[nH]c2ccc(CCS(=O)(=O)c3ccccc3)cc12 [Eletriptan hydrobromide]
[1]
  percent Bodipy-positive cells: 40 ± 4.2%
